Data as given in PubChem BioAssay AID602196 (INSERM, 2012).

Screen: 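Knock-downs that protect lung cancer cells from cisplatin or sensitise them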
Cells: human A549 lung cancer cells
Reagent: siRNA pair against human genes
Timing: 48 h transfection before cisplatin; time from cisplatin to read-out not stated
Conditions: cisplatin at a dose killing half of control-siRNA cells; exact dose and duration not given
Measurement: 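Shift in cisplatin death relative to control siRNA, from -50 (all cells die) to +50 (no cells die); siRNAs harmful on their own scored 0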
Reading the numbers: two-siRNA summed score (-2 to +2): higher = both siRNAs protect from cisplatin killing; -2 means both sensitise; mean protection from cisplatin (shift in death) and protection from cisplatin (shift in death), siRNA C and protection from cisplatin (shift in death), siRNA D: higher = protection from cisplatin killing
Rule for the call: 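siRNAs harmful alone (LDH or WST-1) get 0; others get +1 for less and -1 for more cisplatin killing; genes are active when the two siRNAs give the same sign, summing to ±2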
Meaning of the calls: active = both siRNAs shift cisplatin killing the same way; inactive = no consistent shift, or siRNA harmful alone
The deposit covers about 23,000 reagents; shown is a part drawn at random. 455 of them (2%) were called active. 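Active includes both protection and sensitisation; some change values fall well beyond the stated -50 to +50 range.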 A number with no mark means an inactive call. Reagent sequences are not shown. The record does not give: the amount of reagent.

| gene knocked down | PubChem SID | two-siRNA summed score (-2 to +2) | mean protection from cisplatin (shift in death) (%) | protection from cisplatin (shift in death), siRNA C (%) | protection from cisplatin (shift in death), siRNA D (%) |
| --- | --- | --- | --- | --- | --- |
| NXPH1 | SID131511002 | 0 | 3.9 | 8.5 | -0.7 |
| SIX4 | SID131512361 | 0 | 5.4 | 3.4 | 7.4 |
| ELMO3 | SID131504055 | 0 | -6.7 | 1.5 | -14.9 |
| ZNF333 | SID131518164 | 0 | 17 | 11.6 | 22.3 |
| LZTFL1 | SID131509331 | 0 | 2 | 5.1 | -1 |
| AIG1 | SID131504914 | 0 | -4.2 | -6.2 | -2.2 |
| DYRK4 | SID131515944 | 0 | 9.9 | 16.5 | 3.4 |
| CDKN2B | SID131516095 | 0 | 10.2 | 33.1 | -12.7 |
| LINC01366 | SID131514374 | 0 | 7.7 | 11.3 | 4.2 |
| TRIP4 | SID131523205 | 2 (active) | 25.9 | 30 | 21.8 |
| RPS6KC1 | SID131507427 | 0 | -0.2 | -0.4 | 0.1 |
| LOC389748 | SID131511474 | 0 | 4.4 | -0.1 | 8.9 |
| EML4 | SID131503358 | 0 | -10.7 | -10.7 | -10.6 |
| NLGN4X | SID131509678 | 0 | 2.4 | 1.3 | 3.5 |
| NKAPD1 | SID131513214 | 0 | 6.3 | 6.2 | 6.5 |
| GBP5 | SID131509452 | 0 | 2.2 | 3.3 | 1.1 |
| TRAPPC12 | SID131507891 | 0 | 0.4 | -3.5 | 4.3 |
| TSPYL1 | SID131517857 | 0 | 15.1 | 21.5 | 8.8 |
| RABGEF1 | SID131517054 | 0 | 12.3 | 11.4 | 13.1 |
| IFNA7 | SID131517182 | 0 | 12.6 | 16.7 | 8.6 |
| LOC440343 | SID131514261 | 0 | 7.6 | 2.9 | 12.2 |
| LOC440050 | SID131522992 | 2 (active) | 16.1 | 16.2 | 16.1 |
| BSCL2 | SID131504313 | 0 | -5.8 | -16.3 | 4.7 |
| POLL | SID131505968 | 0 | -2.2 | 18 | -22.5 |
| CYP27B1 | SID131513849 | 0 | 7.1 | 12.6 | 1.6 |
| ZNF174 | SID131518934 | 1 | -3 | -15 | 9 |
| ASMTL | SID131507863 | 0 | 0.4 | 10.2 | -9.5 |
| MRGPRG-AS1 | SID131510064 | 0 | 2.8 | -1.1 | 6.8 |
| GNGT1 | SID131517494 | 0 | 13.6 | 11.5 | 15.8 |
| MRM1 | SID131516434 | 0 | 10.9 | -6.6 | 28.3 |
| FANCA | SID131511585 | 0 | 4.5 | 7.8 | 1.2 |
| LOC441744 | SID131519701 | 1 | 7.1 | 13.2 | 0.9 |
| LOC139116 | SID131514746 | 0 | 8.2 | 9.4 | 7 |
| EEIG1 | SID131517041 | 0 | 12.3 | 11.8 | 12.7 |
| PAGE5 | SID131508696 | 0 | 1.3 | -3.8 | 6.5 |
| PAGE5 | SID131511719 | 0 | 4.7 | 0.5 | 8.8 |
| PITPNA | SID131502498 | -1 | -1.8 | 12.6 | -16.2 |
| SRP68 | SID131508285 | 0 | 0.9 | -8 | 9.7 |
| NDUFAF7 | SID131507292 | 0 | -0.3 | 1.8 | -2.5 |
| ECT2 | SID131511569 | 0 | 4.5 | -4.4 | 13.4 |
| CSNK1G3 | SID131520484 | 1 | 10.1 | 23.2 | -3.1 |
| TMEM87A | SID131503653 | 0 | -8.7 | -22.6 | 5.3 |
| SPACA4 | SID131517201 | 0 | 12.7 | 10.1 | 15.3 |
| TMLHE | SID131514359 | 0 | 7.7 | 4 | 11.4 |
| CPSF7 | SID131508464 | 0 | 1.1 | 0 | 2.2 |
| LOC441709 | SID131506797 | 0 | -1 | 5.3 | -7.2 |
| TEAD4 | SID131512935 | 0 | 6 | 2.5 | 9.5 |
| IER5L | SID131517583 | 0 | 13.9 | 14.7 | 13.2 |
| TMIGD1 | SID131514976 | 0 | 8.5 | 11.9 | 5.1 |
| SAMSN1 | SID131514052 | 0 | 7.3 | 10.3 | 4.3 |
| SAMSN1 | SID131519822 | 1 | 7.6 | 19.1 | -3.9 |
| TCEANC2 | SID131516706 | 0 | 11.5 | 10.1 | 12.8 |
| FAM149B1P1 | SID131516238 | 0 | 10.5 | 11.9 | 9.1 |
| MAP6D1 | SID131510984 | 0 | 3.9 | 5.3 | 2.4 |
| TRAF3 | SID131507777 | 0 | 0.3 | -0.3 | 0.9 |
| LOC400749 | SID131521900 | 1 | 15.4 | -0.2 | 30.9 |
| LOC440644 | SID131518252 | 0 | 17.6 | 16.6 | 18.6 |

Already shown: entries from further up.
| gene knocked down | PubChem SID | two-siRNA summed score (-2 to +2) | mean protection from cisplatin (shift in death) (%) | protection from cisplatin (shift in death), siRNA C (%) | protection from cisplatin (shift in death), siRNA D (%) |
| --- | --- | --- | --- | --- | --- |
| NDUFAF7 | SID131507292 | 0 | -0.3 | 1.8 | -2.5 |
| ECT2 | SID131511569 | 0 | 4.5 | -4.4 | 13.4 |
| CSNK1G3 | SID131520484 | 1 | 10.1 | 23.2 | -3.1 |
